Reference: PubChem BioAssay AID2685 (National Center for Advancing Translational Sciences (NCATS), 2010)
This is one part of the list. Shown are side measurements of this screen, not its main read-out; they come without a call. Most of these compounds were active or inconclusive in the main read-out, so they are no random draw. The note in brackets gives the kind of curve behind each potency; many fits are weak.

Test: qHTS Assay for Lipid Storage Modulators in Drosophila S3 Cells;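 for cell number change: cells counted by Cell Tracker Red CMTPX staining in the red channel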
Settings: BODIPY lipid droplet fluorescence, 18-24 h; for cell number change: measured here: cell count max response, cells fed with added oleic acid
In short: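 Laser-scanning cytometry quantifies lipid droplet accumulation (500–530 nm total intensity; droplet/cell object ratio) in oleic acid-fed (400 uM added) Drosophila S3 cells treated with a concentration series. 20 uM Triacsin C defined 100% inhibition.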

[1] = measured here: lipid fluorescence (Fed channel) AC50, cells fed with added oleic acid
[2] = measured here: cell number channel AC50, cells fed with added oleic acid

Structure (SMILES) | cell number change | AC50 [1] | AC50 [2]
Cc1nn(C)cc1C(C(=O)NC1CCCCC1)N(C(=O)Cc1cccs1)c1ccc(C(C)C)cc1 (configuration not stated) | 24.7% | 29100 nM [rising, single point] | 
O=C(O)C1C(C(=O)O)C1(c1ccccc1)c1ccccc1 (configuration not stated) | -18.3% | 6510 nM [falling, full curve, poor fit] | 
Cc1ccc(F)c(NC(=O)c2ccc(Cn3cc(Cl)cn3)cc2)c1 | -21.3% | 29100 nM [falling, single point] | 
CCn1c(=O)cc(SCC(=O)Nc2ccc(Cl)cc2)c2ccccc21 | 8.7% | 4110 nM [rising, single point] | 
COc1ccc2ccccc2c1-c1sc(Nc2ccccc2)n[n+]1-c1ccc(F)cc1 | 13.8% | 20600 nM [falling, single point] | 36.6 nM [rising, full curve, poor fit]
O=C(COc1ccc(Cl)cc1)OCC(=O)N1CCCC1 | -23.1% | 326 nM [falling, partial curve] | 184 nM [falling, full curve, poor fit]
CCc1ccc(CNC(=O)c2ccc(OC)c(OC3CCN(C(C)C)CC3)c2)nc1 | 17.9% |  | 
COC(=O)c1[nH]c2ccc(C)cc2c1NC(=O)CN1CCCc2ccccc21 | -11.2% | 6510 nM [falling, single point] | 6510 nM [falling, single point]
COc1ccc(OC)c2[nH]c(=O)c(CCNC(=O)c3ccc(Br)o3)cc12 | -17.8% | 651 nM [rising, full curve] | 1840 nM [rising, partial curve]
C=CCNC(=S)Nc1ccc(OC)c(S(=O)(=O)N2CCOCC2)c1 |  |  | 1840 nM [falling, partial curve, poor fit]
CCOC(=O)CNC(c1ccccc1)c1cc(Br)ccc1NC(=O)CCN1CCOCC1 (configuration not stated) | 6.43% | 1030 nM [falling, single point] | 
COc1ccccc1CCNC(=O)CN1C(=O)c2ccccc2S1(=O)=O | 34.9% |  | 23100 nM [rising, partial curve, poor fit]
COc1ccc(/C(C)=N/Nc2nccnc2Cl)cc1 | -19.8% | 5.8 nM [falling, full curve, poor fit] | 
Cc1ccccc1S(=O)(=O)Cc1ccc(C(=O)NCCCN(C)Cc2ccccc2)o1 | 6.11% | 2060 nM [rising, partial curve] | 
COc1ccc(C2=CC(=O)N(Nc3ccccc3)C2=O)cc1 | -60.1% |  | 2590 nM [rising, single point]

Given as comma-separated lines: 2 of the compounds above
Structure (SMILES),cell number change,AC50 [1],AC50 [2]
CCc1ccc(CNC(=O)c2ccc(OC)c(OC3CCN(C(C)C)CC3)c2)nc1,17.9%,,
COC(=O)c1[nH]c2ccc(C)cc2c1NC(=O)CN1CCCc2ccccc21,-11.2%,"6510 nM [falling, single point]","6510 nM [falling, single point]"
